Record: PubChem BioAssay AID493246 (Drosophila RNAi Screening Center, 2011)
Screen: 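Genome-wide search for dsRNAs that reduce cell number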 (primary screen). System: Drosophila Kc and S2R+ cells. Reagents: long dsRNA against Drosophila genes. Read-out: 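Raw, unnormalised count of remaining cells in each well; per-plate z-scores of cell number underlie the calls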. Direction: Kc cell number and S2R+ cell number: higher = more cells remaining. Rule for the call: 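Counted as a hit if cell number falls by a z-score of at least 3 within its plate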.
The deposit covers about 21,000 reagents; shown is a random part of those with a known target gene and a result. In the full data, 429 (2%) are marked active. 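Values are raw and not normalised between plates; calls rest on per-plate z-scores that were not deposited.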 A number with no mark means an inactive call. Reagents against one gene are numbered here. A plus sign joins genes that one reagent is predicted to hit. Not stated in the record: the amount of reagent, the time to read-out.

target gene,reagent no.,"Kc cell number, rep 1","Kc cell number, rep 2","S2R+ cell number, rep 1","S2R+ cell number, rep 2"
GluRIA,1,1.51e6,1.52e6,1.28e6,1.31e6
CG33310,1,1.49e6,1.53e6,1.24e6,1.36e6
Prp6,1,1.66e6,1.71e6,1.07e6,1.22e6
CG12499,1,1.49e6,1.53e6,8.00e5,8.76e5
out,1,1.65e6,1.68e6,1.17e6,1.31e6
Gmer,1,1.35e6,1.44e6,1.18e6,1.19e6
Pkd2,1,1.70e6,1.96e6,1.22e6,1.29e6
CG6231,1,1.22e6,1.22e6,1.01e6,1.12e6
Atg1,1,1.43e6,1.50e6,1.39e6,1.34e6
Atg1,2,1.30e6,1.43e6,1.31e6,1.42e6
COX5B,1,1.25e6,1.37e6,9.23e5,1.06e6
Obp83b,1,1.68e6,1.77e6,1.33e6,1.52e6
CG33969 + fbl,1,1.34e6,1.46e6,1.26e6,1.33e6
CG7695,1,1.21e6,1.19e6,1.12e6,1.19e6
LysD + LysC (retired record),1,1.42e6,1.36e6,9.98e5,1.28e6
CG31807,1,1.42e6,1.48e6,9.23e5,1.10e6
sli,1,1.62e6,1.65e6,1.17e6,1.32e6
Acsx3,1,1.42e6,1.54e6,1.14e6,1.18e6
CG8319,1,1.66e6,1.61e6,1.15e6,1.29e6

5 consecutive records already listed, for reference:
target gene,reagent no.,"Kc cell number, rep 1","Kc cell number, rep 2","S2R+ cell number, rep 1","S2R+ cell number, rep 2"
CG6231,1,1.22e6,1.22e6,1.01e6,1.12e6
Atg1,1,1.43e6,1.50e6,1.39e6,1.34e6
Atg1,2,1.30e6,1.43e6,1.31e6,1.42e6
COX5B,1,1.25e6,1.37e6,9.23e5,1.06e6
Obp83b,1,1.68e6,1.77e6,1.33e6,1.52e6

The list goes on:
target gene,reagent no.,"Kc cell number, rep 1","Kc cell number, rep 2","S2R+ cell number, rep 1","S2R+ cell number, rep 2"
Vps8,1,1.26e6,1.22e6,1.12e6,1.19e6
retn,1,1.55e6,1.58e6,1.24e6,1.37e6
Vps4,1,1.29e6,1.39e6,8.94e5,1.01e6
bond,1,1.43e6,1.52e6,1.07e6,1.10e6
sesB,1,1.23e6,1.33e6,9.23e5,9.77e5
CG31013,1,1.41e6,1.41e6,9.97e5,1.08e6
TfAP-2,1,1.27e6,1.54e6,1.27e6,1.31e6
Dnah3,1,1.49e6,1.42e6,9.57e5,1.14e6
Dnah3,2,1.62e6,1.58e6,1.28e6,1.19e6
CG13251,1,1.40e6,1.48e6,1.22e6,1.27e6
FucTC,1,1.13e6,1.29e6,1.08e6,1.15e6
CG1077,1,1.58e6,1.69e6,1.38e6,1.54e6
sphe,1,1.58e6,1.65e6,1.02e6,1.23e6
CycE,1,1.05e6 (active),1.10e6,6.34e5,6.82e5
CycE,2,1.31e6 (active),1.36e6,5.21e5,6.24e5
CG10376,1,1.27e6,1.33e6,1.09e6,1.09e6
bonsai,1,1.43e6,1.59e6,1.22e6,1.29e6
CG18063,1,1.56e6,1.60e6,1.28e6,1.44e6
Nlp,1,4.75e5,,7.08e5,
mei-217 + mei-218,1,1.69e6,1.71e6,1.16e6,1.28e6
EndoG,1,1.52e6,1.62e6,1.07e6,1.22e6
